The supplement of paper PMC9578143, “Small-Molecule Ebselen Binds to YTHDF Proteins Interfering with the Recognition of N^6-Methyladenosine-Modified RNAs” (ACS Pharmacology & Translational Science, 2022)
The other results are listed elsewhere or left out. Plates or batches differ in their baseline, so values are only roughly comparable.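 Hits were defined as a z-score below −3.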

Target: T1, YTHDF1 YTH domain (aa 365-554) (UniProt Q9BYJ9)
T1 sequence (whole entry): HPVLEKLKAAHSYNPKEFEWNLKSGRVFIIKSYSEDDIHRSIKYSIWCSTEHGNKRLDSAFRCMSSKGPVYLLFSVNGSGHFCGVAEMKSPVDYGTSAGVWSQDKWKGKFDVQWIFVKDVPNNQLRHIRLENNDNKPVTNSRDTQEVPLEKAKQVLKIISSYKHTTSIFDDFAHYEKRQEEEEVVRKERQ
Assay: tryptophan fluorescence intensity z-score (mean); higher = higher fluorescence, less quenching (negative = binding / quenching)
Details: 10 µM

| SMILES | tryptophan fluorescence intensity z-score |
| --- | --- |
| O=C1CCC[C@@H]2[C@H]3C[C@@H](CN12)[C@@H]1CCCCN1C3.[O-][Cl+3]([O-])([O-])O (plate: M 19-20) | inactive: 0.289 |
| CC(CC(C(N)=O)(c1ccccc1)c1ccccc1)N(C)C (centres undefined) (plate: M 11-12) | inactive: 0.412 |
| COc1cc2c(cc1-c1cc3cc4ccoc4cc3oc1=O)OCO2 (plate: M 15-16) | inactive: 0.965 |
| O=c1ccc2cc(O[C@@H]3OC(CO)[C@@H](O)[C@@H](O)C3O)c(O)cc2o1 (some centres undefined) (plate: M 21-22) | inactive: 0.0448 |
| CN(C)C(=S)SSC(=S)N(C)C (plate: M 9-10) | inactive: -1.48 |
| CC(C)C[C@H](CN)CC(=O)O (plate: M 11-12) | inactive: -0.496 |
| O=C1NC(=O)C(=O)C(=O)N1 (plate: M 21-22) | inactive: 0.738 |
| CC(C)(C)NCC(O)c1ccccc1Cl (centres undefined) (plate: M 23-24) | inactive: 0.664 |
| CC(C)(C)C(=O)C(Oc1ccc(Cl)cc1)n1cncn1 (centres undefined) (plate: M 23-24) | inactive: 0.123 |
| CC[C@H]1CN2CCc3cc(OC)c(OC)cc3[C@@H]2C[C@@H]1C[C@H]1NCCc2cc(OC)c(OC)cc21 (plate: M 3-4) | inactive: -0.216 |
| CNC(C)C(O)c1ccccc1 (centres undefined) (plate: M 5-6) | inactive: -0.0927 |
| Cc1ccc(O)cc1.Cc1cccc(O)c1.Cc1ccccc1O (plate: M 1-2) | inactive: 0.195 |
| C[C@@H]1CC[C@H]2[C@@H](C)C(=O)O[C@@H]3O[C@@]4(C)CC[C@@H]1[C@]32OO4 (plate: M 19-20) | inactive: 0.636 |
| CC[C@H]1[C@@H]2C[C@H]3[C@@H]4N(C)c5ccccc5[C@]45C[C@@H]([C@@H]2[C@H]5O)N3[C@@H]1O (plate: M 17-18) | inactive: 0.994 |
| COc1ccc(C[C@H]2NC[C@H](O)[C@H]2OC(C)=O)cc1 (plate: M 19-20) | inactive: 0.0321 |
| CC1(C)N([O-])[N+](=O)C1(C)Br (centres undefined) (plate: M 23-24) | inactive: -0.454 |
| COc1ccc2c(c1)[nH]c1c(C)nccc12 (plate: M 17-18) | inactive: -0.451 |
| O=C1c2ccccc2C(=O)c2ccccc21 (plate: M 21-22) | inactive: 0.0533 |
| CNC(C)[C@H](O)c1ccccc1 (some centres undefined) (plate: M 3-4) | inactive: -0.26 |
| C[C@@H](CO)NC(=O)[C@@H]1C=C2c3cccc4[nH]cc(c34)C[C@H]2N(C)C1 (plate: M 3-4) | inactive: -0.182 |
| CN1CCN(C(=O)OC2c3nccnc3C(=O)N2c2ccc(Cl)cn2)CC1 (centres undefined) (plate: M 15-16) | inactive: 0.508 |
| C[C@]12CC[C@H](O)C[C@H]1CC[C@@H]1[C@@H]2C[C@@H](O)[C@]2(C)[C@@H](C3=CC(=O)OC3)CC[C@]12O (plate: M 15-16) | inactive: 0.676 |

| SMILES | tryptophan fluorescence intensity z-score |
| --- | --- |
| NC(=O)C[S+]([O-])C(c1ccccc1)c1ccccc1 (centres undefined) (plate: M 11-12) | inactive: -0.731 |
| COc1c2c(cc3c1OCO3)CC[N+](C)=C2 (plate: M 15-16) | inactive: 0.327 |
| Cc1cccc(C)c1NC1=NCCCS1 (plate: M 7-8) | inactive: -0.0743 |
| O=P1(NCCCl)OCCCN1CCCl (centres undefined) (plate: M 11-12) | inactive: 0.632 |
| C=C(C)[C@@H]1[C@H]2OC(=O)[C@@H]1[C@]1(O)C[C@H]3O[C@]34C(=O)O[C@H]2[C@]14C (plate: M 17-18) | inactive: 0.318 |
| Oc1ccc(Cl)cc1 (plate: M 3-4) | inactive: 0.167 |
| CC(=O)OC1CCC23C(=O)OC45CCC(C6=CC(=O)OC6)C4(C)CCC2C5CCC3(O)C1 (centres undefined) (plate: M 15-16) | inactive: 0.508 |
| NC(=O)CN1CCCC1=O (plate: M 7-8) | inactive: 0.0553 |
| CC(C)CC(N(C)C)C1(c2ccc(Cl)cc2)CCC1 (centres undefined) (plate: M 9-10) | inactive: -0.234 |
| O=C([O-])c1ccccc1-c1c2cc(Br)c(=O)cc-2oc2[c]([Hg+])c([O-])c(Br)cc12.[Na+].[Na+].[OH-] (plate: M 5-6) | inactive: -1.12 |
| N#C/C(=C\c1cccc(O)c1)C(=O)O [alpha-CYANO-3-HYDROXYCINNAMICACID] (plate: M 21-22) | inactive: -0.255 |
| CC(=O)O[C@@H]1C[C@@]2(C)[C@H](c3ccoc3)C[C@H]3O[C@]32[C@]2(C)C(=O)C(O)=C3C(C)(C)C(=O)C=C[C@]3(C)[C@@H]12 (plate: M 13-14) | inactive: 0.582 |
| C#C[C@]1(O)CC[C@H]2[C@@H]3CCC4=CC(=O)CC[C@]4(C)[C@H]3CC[C@@]21C (plate: M 7-8) | inactive: 0.404 |
| CC(C)[N+](C)(CCC(C(N)=O)(c1ccccc1)c1ccccc1)C(C)C (plate: M 3-4) | inactive: 0.0273 |
| C[C@]12CC[C@H]3[C@@H](CC[C@]4(O)C[C@@H](O)CC[C@]34C=O)[C@@]1(O)CC[C@@H]2C1=CC(=O)OC1 (plate: M 13-14) | inactive: 0.527 |
| O=C1C=CC(=O)c2c(O)cccc21 (plate: M 17-18) | inactive: 0.072 |
| COc1ccc2c(c1)[C@]13CCCC[C@@H]1[C@H](C2)N(C)CC3 (plate: M 1-2) | inactive: 0.754 |
| C=C[C@H]1CN2CC[C@H]1C[C@H]2[C@H](O)c1ccnc2ccccc12 (plate: M 5-6) | inactive: -0.129 |
| C[C@H]1O[C@@H](O[C@H]2[C@@H](O)C[C@H](O[C@H]3[C@@H](O)C[C@H](O[C@H]4CC[C@@]5(C)[C@H](CC[C@@H]6[C@@H]5CC[C@]5(C)[C@@H](C7=CC(=O)OC7)[C@@H](O)C[C@]65O)C4)O[C@@H]3C)O[C@@H]2C)C[C@H](O)[C@@H]1O (plate: M 17-18) | inactive: 0.442 |
| CC1=NCCc2c1[nH]c1cc(O)ccc21 (plate: M 17-18) | inactive: -0.156 |
| CSc1nc(NC(C)C)nc(NC(C)C)n1 (plate: M 23-24) | inactive: 0.848 |
| COc1cc(OC)c2c(c1)O[C@H](c1ccc(OC)c(OC)c1)[C@@H](O)C2 (plate: M 15-16) | inactive: 0.561 |

Among those listed so far, these have a tert-butyl group:

| SMILES | tryptophan fluorescence intensity z-score |
| --- | --- |
| CC(C)(C)NCC(O)c1ccccc1Cl (centres undefined) (plate: M 23-24) | inactive: 0.664 |
| CC(C)(C)C(=O)C(Oc1ccc(Cl)cc1)n1cncn1 (centres undefined) (plate: M 23-24) | inactive: 0.123 |
